Data reported in the supplement of paper PMC4604168 (melanoma cell lines).
The list shows a part of the results. Single values are uncertain, as repeats are few or missing.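 Cells were imaged in 1,536-well plates, and nuclei stained with an antibody against cleaved PARP were counted against all DNA-stained nuclei to give the apoptosis fraction. Screening doses were chosen to leave most cells alive, and resting and induced cleaved-PARP levels differ strongly between cell lines.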

Tested on: IST-MEL1
Experiment: cleaved PARP positive nuclei fraction relative to DMSO control; melanoma cells; higher = more apoptosis
Details: library dose: low library concentration; 72 h

| SMILES | cleaved PARP positive nuclei fraction [%] |
| --- | --- |
| Cc1nc(Nc2ncc(C(=O)Nc3c(C)cccc3Cl)s2)cc(N2CCN(CCO)CC2)n1 [dasatanib] + O=C(Oc1ccc([N+](=O)[O-])cc1)N1CCC(C(O)(c2ccc3c(c2)OCO3)c2ccc3c(c2)OCO3)CC1 [JZL184] (first compound 0.004 µM, partner dose 1 µM) | 46.4 |
| CC(=O)O[C@@]12CO[C@@H]1C[C@H](O)[C@@]1(C)C(=O)[C@H](O)C3=C(C)[C@@H](OC(=O)[C@H](O)[C@@H](NC(=O)OC(C)(C)C)c4ccccc4)C[C@@](O)([C@@H](OC(=O)c4ccccc4)[C@H]21)C3(C)C [Docetaxel] + C/C(O)=C(\C#N)C(=O)Nc1cc(Br)ccc1Br [LFM-A13] (first compound 0.0001 µM, partner dose 2 µM) | 204 |
| C[C@]12O[C@H](C[C@]1(O)CO)n1c3ccccc3c3c4c(c5c6ccccc6n2c5c31)CNC4=O [Lestaurtinib] + Cc1nc(Nc2ncc(C(=O)Nc3c(C)cccc3Cl)s2)cc(N2CCN(CCO)CC2)n1 [dasatanib] (first compound 0.004 µM, partner dose 0.004 µM) | 58 |
| C[C@]12O[C@H](C[C@]1(O)CO)n1c3ccccc3c3c4c(c5c6ccccc6n2c5c31)CNC4=O [Lestaurtinib] + CCc1ccc(CCOc2ccc(CC3SC(=O)NC3=O)cc2)nc1 [pioglitazone] (first compound 0.004 µM, partner dose 2 µM) | 73 |
| C[As](C)SC[C@H](NC(=O)CC[C@H](N)C(=O)O)C(=O)NCC(=O)O [Darinaparsin] + Cn1cc(/C=C2\C(=O)Nc3cccnc32)c2ccccc21 [GW441756] (first compound 0.4 µM, partner dose 0.4 µM) | 43.3 |
| O=C(CCCCCCC(=O)Nc1ccccc1)NO [vorinostat] + O=C(Oc1ccc([N+](=O)[O-])cc1)N1CCC(C(O)(c2ccc3c(c2)OCO3)c2ccc3c(c2)OCO3)CC1 [JZL184] (first compound 0.08 µM, partner dose 1 µM) | 262 |
| C=CCn1c(=O)c2cnc(Nc3ccc(N4CCN(C)CC4)cc3)nc2n1-c1cccc(C(C)(C)O)n1 + C/C(O)=C(\C#N)C(=O)Nc1cc(Br)ccc1Br [LFM-A13] (first compound 0.02 µM, partner dose 2 µM) | 40.3 |
| Cc1cc(SCc2sc(-c3ccc(C(F)(F)F)c(F)c3)nc2C)ccc1OCC(=O)O + COc1cc2ncnc(Nc3ccc(Oc4ccccc4)cc3)c2cc1OC [SrcI1] (first compound 2 µM, partner dose 2 µM) | 138 |
| Cn1cc(C2=C(c3cn(C4CCN(Cc5ccccn5)CC4)c4ccccc34)C(=O)NC2=O)c2ccccc21 [Enzastaurin] + CC(=O)O[C@@]12CO[C@@H]1C[C@H](O)[C@@]1(C)C(=O)[C@H](O)C3=C(C)[C@@H](OC(=O)[C@H](O)[C@@H](NC(=O)OC(C)(C)C)c4ccccc4)C[C@@](O)([C@@H](OC(=O)c4ccccc4)[C@H]21)C3(C)C [Docetaxel] (first compound 0.8 µM, partner dose 0.0001 µM) | 45.1 |
| O=C(/C=C/c1cccnc1)NCCCCC1CCN(C(=O)c2ccccc2)CC1 + C[As](C)SC[C@H](NC(=O)CC[C@H](N)C(=O)O)C(=O)NCC(=O)O [Darinaparsin] (first compound 0.01 µM, partner dose 0.4 µM) | 95.4 |
| C#Cc1cccc(Nc2ncnc3cc(OCCOC)c(OCCOC)cc23)c1 [erlotinib] + Cc1cc(SCc2sc(-c3ccc(C(F)(F)F)c(F)c3)nc2C)ccc1OCC(=O)O [GW0742] (first compound 0.8 µM, partner dose 2 µM) | 355 |
| C[As](C)SC[C@H](NC(=O)CC[C@H](N)C(=O)O)C(=O)NCC(=O)O [Darinaparsin] + COc1ccc(-c2ccc3c(N4CCOCC4)nc(N4C[C@@H](C)O[C@@H](C)C4)nc3n2)cc1CO [KU0063794] (first compound 0.4 µM, partner dose 0.02 µM) | 161 |
| Cn1cc(C2=C(c3cn(C4CCN(Cc5ccccn5)CC4)c4ccccc34)C(=O)NC2=O)c2ccccc21 [Enzastaurin] + C[C@@H](Oc1cc(-c2cnn(C3CCNCC3)c2)cnc1N)c1c(Cl)ccc(F)c1Cl [Crizotinib] (first compound 0.8 µM, partner dose 0.2 µM) | 56.2 |
| COc1ccc(C2=N[C@@H](c3ccc(Cl)cc3)[C@@H](c3ccc(Cl)cc3)N2C(=O)N2CCNC(=O)C2)c(OC(C)C)c1 [Nutlin-3] + O=C(Oc1ccc([N+](=O)[O-])cc1)N1CCC(C(O)(c2ccc3c(c2)OCO3)c2ccc3c(c2)OCO3)CC1 [JZL184] (first compound 0.1 µM, partner dose 1 µM) | 95.7 |

Retrieved one by one from the list above, 2 records:

| SMILES | cleaved PARP positive nuclei fraction [%] |
| --- | --- |
| C#Cc1cccc(Nc2ncnc3cc(OCCOC)c(OCCOC)cc23)c1 [erlotinib] + Cc1cc(SCc2sc(-c3ccc(C(F)(F)F)c(F)c3)nc2C)ccc1OCC(=O)O [GW0742] (first compound 0.8 µM, partner dose 2 µM) | 355 |
| Cn1cc(C2=C(c3cn(C4CCN(Cc5ccccn5)CC4)c4ccccc34)C(=O)NC2=O)c2ccccc21 [Enzastaurin] + CC(=O)O[C@@]12CO[C@@H]1C[C@H](O)[C@@]1(C)C(=O)[C@H](O)C3=C(C)[C@@H](OC(=O)[C@H](O)[C@@H](NC(=O)OC(C)(C)C)c4ccccc4)C[C@@](O)([C@@H](OC(=O)c4ccccc4)[C@H]21)C3(C)C [Docetaxel] (first compound 0.8 µM, partner dose 0.0001 µM) | 45.1 |
